Assay [1] concerns the target GST-WC-1 aa 1-300-6xHis (Neurospora) (UniProt Q01371). Description: pull-down; purified GST, GST-aa1-300 or GST-aa100-300 on glutathione beads incubated with 2 milligrams of cleared Neurospora lysate (SWI1 C-tagged with V5), rotated at least 2 hours, washed three times; Western blot; only the target purified. (In general: Immunoblotting shows a protein as a band on a membrane.)

Protein sequences, listed by entry. Tags and fused reporters are not part of them. Residues count along the entry.
GST-WC-1 aa 1-300-6xHis (Q01371, residues 1-300): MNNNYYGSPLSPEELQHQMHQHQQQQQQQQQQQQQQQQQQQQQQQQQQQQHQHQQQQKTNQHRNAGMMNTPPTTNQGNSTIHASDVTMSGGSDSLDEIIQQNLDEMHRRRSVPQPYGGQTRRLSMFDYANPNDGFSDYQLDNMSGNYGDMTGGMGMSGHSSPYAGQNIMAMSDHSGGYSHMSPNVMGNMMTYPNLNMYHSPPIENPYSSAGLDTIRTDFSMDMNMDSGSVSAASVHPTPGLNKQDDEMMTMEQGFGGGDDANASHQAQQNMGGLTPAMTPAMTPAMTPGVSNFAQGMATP
GST-WC-1 aa 100-300-6xHis (Q01371, residues 100-300): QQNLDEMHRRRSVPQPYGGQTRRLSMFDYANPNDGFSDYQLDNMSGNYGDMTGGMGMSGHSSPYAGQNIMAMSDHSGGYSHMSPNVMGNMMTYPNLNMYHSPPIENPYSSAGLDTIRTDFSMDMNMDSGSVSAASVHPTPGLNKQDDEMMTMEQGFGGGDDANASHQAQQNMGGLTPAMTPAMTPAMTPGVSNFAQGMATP

Assay [2] has as its target GST-WC-1 aa 100-300-6xHis (Neurospora) (UniProt Q01371). Described as above.

Results are given in words; binding and its absence hold for the method and conditions named. In cells and extracts the contact can be indirect.

Consider one molecule from PMC4177678.

B1: GATA Zn finger factor SRE (protein, UniProt Q1K8E7 1-587)
chain: MALPDDTRLMNNQTSIEGNSAPDRMALPSRPPPPTASNEPPEHESTGPVDEAASKSESGLSPNSKKAGHAAQSPSGRKKSPKIQNAQPAQSPAETVGVVNVATLGLVPSVQGHAGQVCSNCGTTHTPLWRRSPQGAIICNACGLYLKARNAARPANIRRPPSVMASNVRQAAAKLSPKKATAPLLPSNPGATYVAADQTPSGSCPGGGRCNGTGGAEGCGGCPAYNNRVSKSASLNVLKCQGAAAASSKKPQAAEGSGEEPTEMDITALHVQSQNTTVVIACQNCGTTITPLWRRDEAGHTICNACGLYYKLHGVHRPVTMKKAIIKRRKRVIPAAGGDAEIEPSEAPDSPPATSEPPMEKGTVNEDGSVNLGIRRRSVRPLTLVPEDELRRNRQASPLSSAALGQYHSSHTNQPHHGAHASLTYENRLAPIHSLALPVDRQASISPASFLSPSRKRSISAVENEPSSHNDNESHKRLSSIKSILNPMPSSEIHREVSPADQLRMQPASRSPAMSSLTPAHSPGSFSNSTVIGTPTSAPILRSASRDTHNDSERMKAERRAALEREAEMMRELLAAKERELAELGYD
As for B1, the binding entry in assay [1] and in assay [2] was “no binding” each time.
